Laboratory results published in US7041801.
These are yes or no findings as the source states them, for the method shown. Some entries that bind do so weakly or less than the wild type.

By UniProt entry, the sequences of proteins in these tests, tags left out. Where a name states a change or a piece, a line headed by the entry shows the natural chain unless it says otherwise.
UniProt P06756: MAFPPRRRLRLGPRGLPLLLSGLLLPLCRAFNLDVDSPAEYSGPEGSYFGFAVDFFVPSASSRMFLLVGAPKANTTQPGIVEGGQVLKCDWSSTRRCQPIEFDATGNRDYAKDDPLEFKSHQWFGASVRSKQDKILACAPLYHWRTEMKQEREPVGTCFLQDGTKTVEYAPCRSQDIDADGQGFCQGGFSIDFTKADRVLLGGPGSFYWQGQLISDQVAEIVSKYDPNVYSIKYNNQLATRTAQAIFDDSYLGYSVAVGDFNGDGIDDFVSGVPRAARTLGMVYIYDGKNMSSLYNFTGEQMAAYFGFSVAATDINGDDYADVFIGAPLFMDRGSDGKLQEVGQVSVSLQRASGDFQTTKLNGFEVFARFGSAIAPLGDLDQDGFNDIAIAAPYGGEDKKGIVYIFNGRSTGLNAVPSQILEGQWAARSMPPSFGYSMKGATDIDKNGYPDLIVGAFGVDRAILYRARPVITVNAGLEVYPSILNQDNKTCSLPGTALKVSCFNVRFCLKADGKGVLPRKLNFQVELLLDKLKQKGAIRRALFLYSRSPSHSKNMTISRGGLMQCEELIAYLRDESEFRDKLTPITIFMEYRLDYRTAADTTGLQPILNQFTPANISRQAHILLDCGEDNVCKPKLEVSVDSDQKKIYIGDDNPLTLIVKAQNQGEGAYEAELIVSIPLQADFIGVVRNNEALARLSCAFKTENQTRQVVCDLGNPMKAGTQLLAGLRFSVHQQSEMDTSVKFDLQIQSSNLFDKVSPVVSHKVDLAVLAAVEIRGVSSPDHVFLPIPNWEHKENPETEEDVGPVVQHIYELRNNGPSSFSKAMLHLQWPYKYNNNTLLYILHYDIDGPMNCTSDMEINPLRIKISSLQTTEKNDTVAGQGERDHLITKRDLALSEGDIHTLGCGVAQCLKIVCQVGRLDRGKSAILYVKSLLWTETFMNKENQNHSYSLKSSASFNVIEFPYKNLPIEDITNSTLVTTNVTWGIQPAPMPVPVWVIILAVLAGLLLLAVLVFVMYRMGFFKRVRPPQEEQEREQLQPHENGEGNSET
UniProt P05106: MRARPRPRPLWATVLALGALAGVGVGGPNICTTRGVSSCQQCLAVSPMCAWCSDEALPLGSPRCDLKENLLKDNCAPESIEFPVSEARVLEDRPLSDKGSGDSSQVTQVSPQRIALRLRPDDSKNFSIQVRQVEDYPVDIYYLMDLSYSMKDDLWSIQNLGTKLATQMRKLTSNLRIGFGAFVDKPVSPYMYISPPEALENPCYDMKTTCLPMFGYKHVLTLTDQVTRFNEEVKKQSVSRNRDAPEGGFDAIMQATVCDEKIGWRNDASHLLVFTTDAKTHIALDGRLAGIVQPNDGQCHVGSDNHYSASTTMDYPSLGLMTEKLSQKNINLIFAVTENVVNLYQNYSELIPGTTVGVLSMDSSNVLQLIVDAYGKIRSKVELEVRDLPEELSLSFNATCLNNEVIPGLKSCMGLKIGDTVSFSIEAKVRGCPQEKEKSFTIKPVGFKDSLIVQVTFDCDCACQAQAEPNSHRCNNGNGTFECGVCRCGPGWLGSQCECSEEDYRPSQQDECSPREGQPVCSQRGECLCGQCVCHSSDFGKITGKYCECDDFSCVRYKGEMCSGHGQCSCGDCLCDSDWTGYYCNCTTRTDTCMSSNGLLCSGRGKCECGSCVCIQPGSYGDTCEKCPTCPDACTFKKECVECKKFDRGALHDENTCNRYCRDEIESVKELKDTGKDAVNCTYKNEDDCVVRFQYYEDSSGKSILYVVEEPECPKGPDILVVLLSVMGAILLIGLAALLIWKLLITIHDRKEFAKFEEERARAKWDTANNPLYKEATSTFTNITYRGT

Target: integrin αVβ3 expressed by human umbilical vein endothelial cells (HUVEC) (human) (UniProt P06756+P05106)
Experiment: adhesion of HUVEC to plates coated with recombinant Del-1

binding: binds
B1: Recombinant murine Del-1 protein (major form), refolded, from E. coli pET28a (ligand, not shown: small tags and cut ends)
chain: DICNPNPCENGGICLSGLADDSFSCECPEGFAGPNCSSVVEVASDEEKPTSAGPCIPNPCHNGGTCEISEAYRGDTFIGYVCKCPRGFNGIHCQHNINECEAEPCRNGGICTDLVANYSCECPGEFMGRNCQYKCSGHLGIEGGIISNQQITASSNHRALFGLQKWYPYYARLNKKGLINAWTAAENDRWPWIQINLQRKMRVTGVITQGAKRIGSPEYIKSYKIAYSNDGKTWAMYKVKGTNEEMVFRGNVDNNTPYANSFTPPIKAQYVRLYPQICRRHCTLRMELLGCELSGCSEPLGMKSGHIQDYQITASSVFRTLNMDMFTWEPRKARLDKQGKVNAWTSGHNDQSQWLQVDLLVPTKVTGIITQGAKDFGHVQFVGSYKLAYSNDGEHWMVHQDEKQRKDKVFQGNFDNDTHRKNVIDPPIYARFIRILPWSWYGRITLRSELLGCAEEE
